Earlier results as cited in US20160251341A1, “SUBSTITUTED TRIAZOLE COMPOUNDS AS SERINE PROTEASE INHIBITORS” (Verseon Corporation, priority 2015, published 2016).
For at least one compound, name, drawing or mass did not settle the structure.

Conditions: SPORTIF III and V combined, compared to warfarin; cited from earlier work

CCOC(=O)CN[C@@H](C(=O)N1CC[C@H]1C(=O)NCc1ccc(/C(N)=N\O)cc1)C1CCCCC1 [ximelagatran]
relative risk reduction in the composite outcome measure of all strokes, systemic embolic events, major bleeding, and death: 16%
